These are yes or no findings as the source states them, for the method shown. Binding seen in cells or lysates may run through a third protein. A yes stands for co-enrichment or nearness to the bait. Other partners may have been found. No binding means not detected with the bait.

Chains of the proteins cited; added tags and fusions are not shown.
UniProt P32867: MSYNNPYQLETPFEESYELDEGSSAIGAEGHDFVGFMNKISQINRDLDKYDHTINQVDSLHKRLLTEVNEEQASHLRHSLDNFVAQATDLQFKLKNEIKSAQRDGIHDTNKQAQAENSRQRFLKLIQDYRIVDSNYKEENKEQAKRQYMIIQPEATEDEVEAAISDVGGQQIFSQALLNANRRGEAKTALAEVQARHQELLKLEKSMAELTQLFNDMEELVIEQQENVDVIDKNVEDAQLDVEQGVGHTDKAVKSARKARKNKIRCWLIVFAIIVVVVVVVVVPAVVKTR
UniProt P01123: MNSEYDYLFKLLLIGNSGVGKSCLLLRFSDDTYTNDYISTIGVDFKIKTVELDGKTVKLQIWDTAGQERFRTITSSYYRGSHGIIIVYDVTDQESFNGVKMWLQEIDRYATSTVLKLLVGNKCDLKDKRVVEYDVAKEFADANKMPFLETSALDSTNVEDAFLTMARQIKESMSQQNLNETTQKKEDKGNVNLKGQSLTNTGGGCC
UniProt P40357: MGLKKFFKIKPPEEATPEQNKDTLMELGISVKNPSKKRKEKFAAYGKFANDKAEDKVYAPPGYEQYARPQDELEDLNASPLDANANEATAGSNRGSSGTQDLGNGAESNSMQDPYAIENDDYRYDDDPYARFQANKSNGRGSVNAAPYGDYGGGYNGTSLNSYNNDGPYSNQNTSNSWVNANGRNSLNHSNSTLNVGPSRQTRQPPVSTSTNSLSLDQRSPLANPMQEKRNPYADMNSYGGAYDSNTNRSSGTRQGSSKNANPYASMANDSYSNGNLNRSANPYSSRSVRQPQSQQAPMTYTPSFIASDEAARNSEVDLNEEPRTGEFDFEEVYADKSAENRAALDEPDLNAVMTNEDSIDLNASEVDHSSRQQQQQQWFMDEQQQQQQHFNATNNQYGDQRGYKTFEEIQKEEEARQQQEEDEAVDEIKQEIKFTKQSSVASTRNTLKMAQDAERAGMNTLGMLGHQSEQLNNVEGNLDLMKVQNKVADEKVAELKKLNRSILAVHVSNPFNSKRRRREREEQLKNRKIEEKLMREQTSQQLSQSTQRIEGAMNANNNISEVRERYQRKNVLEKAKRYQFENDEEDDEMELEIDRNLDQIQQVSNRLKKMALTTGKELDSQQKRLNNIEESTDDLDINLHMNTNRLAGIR
UniProt P38631: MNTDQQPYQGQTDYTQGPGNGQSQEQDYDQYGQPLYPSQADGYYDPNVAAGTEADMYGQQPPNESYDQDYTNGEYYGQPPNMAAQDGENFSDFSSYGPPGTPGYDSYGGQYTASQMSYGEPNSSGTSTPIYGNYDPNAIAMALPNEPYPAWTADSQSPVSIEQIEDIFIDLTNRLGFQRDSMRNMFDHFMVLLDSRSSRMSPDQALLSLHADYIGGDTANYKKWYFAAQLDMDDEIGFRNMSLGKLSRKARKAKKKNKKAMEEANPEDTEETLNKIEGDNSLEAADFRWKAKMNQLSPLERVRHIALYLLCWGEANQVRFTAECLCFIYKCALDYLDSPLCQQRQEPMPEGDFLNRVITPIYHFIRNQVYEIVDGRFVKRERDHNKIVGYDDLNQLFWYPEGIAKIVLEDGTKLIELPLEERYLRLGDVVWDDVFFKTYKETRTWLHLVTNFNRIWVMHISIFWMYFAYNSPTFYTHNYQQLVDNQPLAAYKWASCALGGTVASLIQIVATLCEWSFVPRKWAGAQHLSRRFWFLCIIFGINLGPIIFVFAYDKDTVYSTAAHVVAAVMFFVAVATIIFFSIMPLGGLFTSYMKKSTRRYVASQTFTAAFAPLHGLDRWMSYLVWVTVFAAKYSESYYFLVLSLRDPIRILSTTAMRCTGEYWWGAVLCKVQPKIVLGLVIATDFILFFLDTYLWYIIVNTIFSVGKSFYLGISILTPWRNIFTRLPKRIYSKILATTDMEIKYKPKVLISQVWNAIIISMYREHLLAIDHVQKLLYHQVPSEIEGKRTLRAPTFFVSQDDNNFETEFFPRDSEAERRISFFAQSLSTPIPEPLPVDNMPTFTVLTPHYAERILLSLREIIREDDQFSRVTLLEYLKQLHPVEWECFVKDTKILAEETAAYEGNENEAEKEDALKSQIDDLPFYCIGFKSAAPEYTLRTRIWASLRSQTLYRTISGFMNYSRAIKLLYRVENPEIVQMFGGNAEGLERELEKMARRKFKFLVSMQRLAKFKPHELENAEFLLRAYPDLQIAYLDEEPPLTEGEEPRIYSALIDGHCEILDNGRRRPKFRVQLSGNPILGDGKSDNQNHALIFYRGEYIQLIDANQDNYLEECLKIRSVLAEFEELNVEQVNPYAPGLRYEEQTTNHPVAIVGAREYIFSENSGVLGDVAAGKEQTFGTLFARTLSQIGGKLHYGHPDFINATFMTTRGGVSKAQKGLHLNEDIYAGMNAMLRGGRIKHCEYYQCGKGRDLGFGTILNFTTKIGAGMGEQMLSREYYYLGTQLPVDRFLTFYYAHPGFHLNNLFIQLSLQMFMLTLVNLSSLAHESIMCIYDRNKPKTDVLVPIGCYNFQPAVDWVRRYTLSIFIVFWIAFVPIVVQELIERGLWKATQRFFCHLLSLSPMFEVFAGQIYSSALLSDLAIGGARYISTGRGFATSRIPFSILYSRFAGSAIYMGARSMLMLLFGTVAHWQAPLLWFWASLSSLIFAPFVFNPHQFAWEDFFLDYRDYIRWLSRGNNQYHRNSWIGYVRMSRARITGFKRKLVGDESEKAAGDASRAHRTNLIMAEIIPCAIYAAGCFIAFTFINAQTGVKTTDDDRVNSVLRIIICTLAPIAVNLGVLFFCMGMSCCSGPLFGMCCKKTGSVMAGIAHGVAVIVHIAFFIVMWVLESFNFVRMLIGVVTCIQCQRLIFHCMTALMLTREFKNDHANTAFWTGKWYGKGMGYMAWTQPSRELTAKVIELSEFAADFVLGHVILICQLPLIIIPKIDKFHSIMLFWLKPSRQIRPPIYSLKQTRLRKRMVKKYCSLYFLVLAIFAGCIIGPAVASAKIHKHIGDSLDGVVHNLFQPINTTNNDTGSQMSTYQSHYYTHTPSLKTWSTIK
UniProt P38682: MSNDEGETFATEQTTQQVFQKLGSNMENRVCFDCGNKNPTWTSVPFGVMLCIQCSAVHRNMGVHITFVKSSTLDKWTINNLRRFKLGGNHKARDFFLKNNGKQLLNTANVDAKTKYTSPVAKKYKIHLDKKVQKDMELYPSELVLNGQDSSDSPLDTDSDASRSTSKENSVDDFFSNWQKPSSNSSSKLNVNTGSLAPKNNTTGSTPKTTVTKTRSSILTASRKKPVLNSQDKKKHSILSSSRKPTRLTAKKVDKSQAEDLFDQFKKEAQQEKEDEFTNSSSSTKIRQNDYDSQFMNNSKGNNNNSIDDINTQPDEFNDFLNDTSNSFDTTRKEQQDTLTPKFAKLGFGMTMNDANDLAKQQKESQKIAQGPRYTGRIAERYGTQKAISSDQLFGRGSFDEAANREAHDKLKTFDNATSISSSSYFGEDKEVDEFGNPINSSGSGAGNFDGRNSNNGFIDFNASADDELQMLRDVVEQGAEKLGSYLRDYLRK
UniProt P38261: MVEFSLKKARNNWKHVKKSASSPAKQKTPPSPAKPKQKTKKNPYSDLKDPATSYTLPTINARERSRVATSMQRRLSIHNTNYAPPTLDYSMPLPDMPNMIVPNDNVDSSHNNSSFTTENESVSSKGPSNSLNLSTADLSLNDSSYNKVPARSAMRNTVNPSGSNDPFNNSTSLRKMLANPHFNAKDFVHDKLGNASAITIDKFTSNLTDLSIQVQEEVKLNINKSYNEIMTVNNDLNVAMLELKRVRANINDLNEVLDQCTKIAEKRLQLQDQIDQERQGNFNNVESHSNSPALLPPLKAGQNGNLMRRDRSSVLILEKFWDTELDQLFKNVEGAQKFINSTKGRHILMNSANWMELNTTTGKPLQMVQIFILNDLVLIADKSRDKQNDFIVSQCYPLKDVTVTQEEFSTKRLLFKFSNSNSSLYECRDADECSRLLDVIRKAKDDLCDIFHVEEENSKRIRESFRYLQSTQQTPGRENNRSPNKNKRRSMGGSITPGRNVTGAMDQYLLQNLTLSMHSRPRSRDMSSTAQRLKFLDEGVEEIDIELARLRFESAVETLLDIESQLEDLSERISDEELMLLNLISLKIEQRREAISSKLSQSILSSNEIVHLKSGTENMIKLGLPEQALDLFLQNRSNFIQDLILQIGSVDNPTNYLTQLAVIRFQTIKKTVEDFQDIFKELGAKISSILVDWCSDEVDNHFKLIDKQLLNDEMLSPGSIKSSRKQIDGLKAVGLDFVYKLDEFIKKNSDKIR

First the molecules themselves.
B1: TRS23 (protein, UniProt Q03784 1-219)
chain: MAIETILVINKSGGLIYQRNFTNDEQKLNSNEYLILASTLHGVFAIASQLTPKALQLTQQTNIENTIPYIPYVGMSSNRSDTRNGGGNNNKHTNNEKLGSFKGDDFFKEPFTNWNKSGLRQLCTDQFTMFIYQTLTGLKFVAISSSVMPQRQPTIATTDKPDRPKSTSNLAIQIADNFLRKVYCLYSDYVMKDPSYSMEMPIRSNLFDEKVKKMVENLQ
B2: Trs33p (protein, UniProt Q99394 1-268)
chain: MSSTHSNNVGHPQSSPQGPLTEQQRAQQQYQIFENSLPKVSQSVYQMLLNEMVPLAMGIERQISGDVISSDSNVTSENGNINNMIKRLKIEEHHTVDIIRSHNLIHELYKADEEEKEKVLARLRNIGFQIGLKLSELLIFSNNPNLKFKEMDLLLIMKFICRDVWKQIFGKQIDNLKTNHRGTFYLLDYDYRPIQSFSLEEDAKNEELKMIEPFLEIPVGIIRGVLSSLGYSSEEVICLASFIDRPTDRPKTAFPKGVSFHVQVTMPQ
B3: SYP1 (protein, UniProt P25623 1-870)
chain: MTEQRTKYADSILTTKSPYEATETIRIRLSQVKLLNKDFYLLFKELANLKRNYAQQLRKIIAENEDITKILNAQMIESNVLTPQEMSAFRFNSLGELRNVWDTVIEELKSDLKSSTEYYNTLDQQVVRELKESVENNTSWRESKDLHSKLSKNAASIEHYSKNNENSSHLEEARRQWDQQSPYLFELFETIDYNRLDTLKNCMLRFQTSFSDYLLNTTKECETVMTKFLAFEPQSEIDRFAKDASQYNFQLSSSSKEVVPNNASPASATGARPVSVSNGAANTEREKKSPQKDKRKSAFGNIGHRLASASSSLTHNDLMNNEFSDSTNNSSLKSKKSSHTLRSKVGSIFGRNKTKNKRQQQSSSNSHIQASITETPNNSSTRVSSTATSSIYQKQRRPTYSSSKSNNWTPGEASDTPPLPPHATPKNVDAPVTADTPPAQTFTPSEVPPSTPQQSSPPTAKEPDSSNLPKTVPISISQPPLQPQSKTKPLPVEPASPSISLPTATVDNQPSGQVDSRPLHIRAPALPPSRKQNFIHNRDSQLYDSLPNHGSGATPTSSSLSSIPQERPVSTLSSQITGELRELNPQATGSSTSLVGQSLFQHSSLDTSQFGLNASIAEVLNASFKDGMLQNSQLIGEIALNYLPNSVMNSPLPIGINLRINNGAKFEKVILNQAFIERVAPEEFKVNPSFIDSRTLGAIKYSIKEPIAPIVIHPVWRFESHQASVVLTVKMSPSLPDEISQIVIEDLVVFVNIDGANATSALSKPQGSFSKEKKRITWRFKEPVVLTRNGEGQRLIARFITDGLAHESAKGVITKFTISETDNVALPHSGAGSGITLTCQELDENNPFGGEWLDVNTKRTLTTGNYHGLA
B4: GAS1 (protein, UniProt P22146 23-528)
chain: DDVPAIEVVGNKFFYSNNGSQFYIRGVAYQADTANETSGSTVNDPLANYESCSRDIPYLKKLNTNVIRVYAINTTLDHSECMKALNDADIYVIADLAAPATSINRDDPTWTVDLFNSYKTVVDTFANYTNVLGFFAGNEVTNNYTNTDASAFVKAAIRDVRQYISDKNYRKIPVGYSSNDDEDTRVKMTDYFACGDDDVKADFYGINMYEWCGKSDFKTSGYADRTAEFKNLSIPVFFSEYGCNEVTPRLFTEVEALYGSNMTDVWSGGIVYMYFEETNKYGLVSIDGNDVKTLDDFNNYSSEINKISPTSANTKSYSATTSDVACPATGKYWSAATELPPTPNGGLCSCMNAANSCVVSDDVDSDDYETLFNWICNEVDCSGISANGTAGKYGAYSFCTPKEQLSFVMNLYYEKSGGSKSDCSFSGSATLQTATTQASCSSALKEIGSMGTNSASGSVDLGSGTESSTASSNASGSSSKSNSGSSGSSSSSSSSSASSSSSSKKN
B5: Bet3p (protein, UniProt P36149 1-193)
chain: MVSTTQSRSLKAMGEEIWKNKTEKINTELFTLTYGSIVAQLCQDYERDFNKVNDHLYSMGYNIGCRLIEDFLARTALPRCENLVKTSEVLSKCAFKIFLNITPNITNWSHNKDTFSLILDENPLADFVELPMDAMKSLWYSNILCGVLKGSLEMVQLDCDVWFVSDILRGDSQTEIKVKLNRILKDEIPIGED
B6: Trs130p (protein, UniProt Q03660 1-1102)
chain: MDKEIYCGSVPVSYFDPFDLFESLRPEFQQILPLDNIHWKAFDGTVRTVNRLPIELIPEGRGEADKSNDEQPFIRFLIVNCISIDQYRAKVRPLVRQWLPNLESVSSSTGEKMIYKPIILLYANSEVVDSNLFKSVSLMEKFGKDFPHVQTLEVRSVYRSPKERQEFWNQFSQKIKASVLSIFQKRLTHLQHSLANLQKGNNFEEQLLTREKLYELYVVFNILEDASLELQKIKKEILRRNMNMPDGKLQVPFESSSKSDESLGSIIIEGTLDKFQLHKYFFIRRLRLLKLEDQTLTAFVGAFQLIKNFIESISIEYRKSVRLLEFKHYFITSMLSYFEFENVSNPLLCEIKAELLMLKRDNWVQGVMATSGYRLMDKNYPNSDVKYKFDLLKETFVDETVFQENFLTLTKEILSLFNKCEGKRQRIVDILSIEIGLLYYQGKKYEEAVSLFLSCYEYYTQTNWNSIGLKILQVFIDSLSHCPKLDVLQIDGESVSASAVLTNAFLNILKLCKDNDSKEIWWKKFMDLQMKNNIHLMYPLDGLFEVTLNSKVHLARANVSAIEVNLKSYGFPEDISTKTMRLSLKNMGGDVIVFGASDFLLKKGENKLILECRDIMYGEFSLLSFEIIVEGITFVKEFPENQDEFIVVPEIYCKESTKVLVKQAHNLNLGEYALELKSVQSDALESLQVEVEVQKNIGNMKNLPVSFSMDEIQARKRYNTPFENVRLEYYLLDQITAFDLIIKTSFTKKNDQGTFGETKKVRIQCYLQLSVSVEDIFKKDIFFFKFLLNSSVREEPVILYSSELSAPDTRNDYNIRGDYIATTPALITFDGNESFINCYEITANNNFDSKDIFNLKVRYNTLKEQLDCFITDAVLIEGDVEWFILFEKWKTFWELEILKKLKYDYDAFKENRIIRLLKTSIDLNKTKSKIRNLCIEKAVLDKILICLNKVSRGIAVCNTDMDEYVRNLVPKQLTVPVQLPGFEQFFHVQFEQMETSHDALHDTIATIGNSLSYTVIVENLSGQWGQDVIDDGGYIFEILSSNEWLIHGQKRCAIKEKRKEFEVHLIPLKKGYLNFPRVEITNINGKSCRVDHSNAFESILIF

This assay deals with T1, Trs120p-TAP (yeast (endogenous in the yeast strain)) (UniProt Q04183).
T1 sequence: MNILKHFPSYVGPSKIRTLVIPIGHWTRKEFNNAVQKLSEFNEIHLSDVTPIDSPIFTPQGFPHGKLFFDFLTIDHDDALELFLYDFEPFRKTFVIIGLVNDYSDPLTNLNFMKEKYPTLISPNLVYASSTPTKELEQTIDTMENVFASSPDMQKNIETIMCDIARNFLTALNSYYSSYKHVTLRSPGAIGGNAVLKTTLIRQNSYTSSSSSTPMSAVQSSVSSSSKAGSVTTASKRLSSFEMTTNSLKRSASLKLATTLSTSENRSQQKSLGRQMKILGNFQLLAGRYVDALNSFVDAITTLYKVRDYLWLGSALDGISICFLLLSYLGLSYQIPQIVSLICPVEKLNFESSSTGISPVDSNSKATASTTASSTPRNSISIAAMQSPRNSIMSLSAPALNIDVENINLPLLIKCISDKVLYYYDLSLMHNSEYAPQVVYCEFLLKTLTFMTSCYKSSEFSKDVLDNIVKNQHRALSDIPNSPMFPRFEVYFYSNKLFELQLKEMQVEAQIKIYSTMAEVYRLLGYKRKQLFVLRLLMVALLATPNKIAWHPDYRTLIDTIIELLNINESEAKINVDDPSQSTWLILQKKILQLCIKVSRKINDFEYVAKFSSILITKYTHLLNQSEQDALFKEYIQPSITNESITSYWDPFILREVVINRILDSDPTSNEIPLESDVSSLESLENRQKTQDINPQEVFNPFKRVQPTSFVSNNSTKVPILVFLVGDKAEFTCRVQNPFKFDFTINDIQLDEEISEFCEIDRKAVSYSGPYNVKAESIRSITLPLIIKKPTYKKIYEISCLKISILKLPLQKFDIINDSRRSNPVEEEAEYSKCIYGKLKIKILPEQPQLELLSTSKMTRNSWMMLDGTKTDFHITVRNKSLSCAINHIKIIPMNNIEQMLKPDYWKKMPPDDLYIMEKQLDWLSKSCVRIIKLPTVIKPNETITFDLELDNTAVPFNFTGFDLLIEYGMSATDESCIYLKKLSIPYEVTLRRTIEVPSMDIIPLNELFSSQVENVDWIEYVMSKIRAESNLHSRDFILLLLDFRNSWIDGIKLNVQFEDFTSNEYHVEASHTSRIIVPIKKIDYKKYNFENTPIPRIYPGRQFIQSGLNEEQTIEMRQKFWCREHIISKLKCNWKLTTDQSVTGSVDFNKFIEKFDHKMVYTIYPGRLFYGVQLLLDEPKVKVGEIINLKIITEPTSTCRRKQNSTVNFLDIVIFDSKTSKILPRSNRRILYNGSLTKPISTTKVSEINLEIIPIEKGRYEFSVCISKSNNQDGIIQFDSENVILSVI
In words: affinity purification with mass spectrometry; Trs120p-TAP purified from yeast lysate (1% CHAPS, 100 mM NaCl) on IgG beads, TEV elution, calmodulin beads, EGTA elution; gel bands or total eluate analysed by MS/MS.
In the case of SSO1 (from UniProt P32867 1-290), the binding result is recorded as “binds”.

With Ypt1p (from UniProt P01123 1-206), the binding result is recorded as “no binding”.

Consider SEC9 (from UniProt P40357 1-651), for which the binding result was “binds”.

As to FKS1 (from UniProt P38631 1-1876), the binding entry is listed as “binds”.

Turning to Glo3p (from UniProt P38682 1-493), the binding result is given as “binds”.

Consider EXO89 (from UniProt P38261 1-753), for which the binding result is “binds”.

On to B1, for which the binding result was “binds”.

For the molecule B2, the binding result is recorded as “binds”.

Regarding B3, the binding result is on record as “binds”.

Regarding B4, the binding result was “binds”.

B5: the binding result is “binds”.

In the case of B6, the binding result is recorded as “binds”.

The values above are taken from paper PMC4877375.
